Data published in the supplement of paper PMC12819154, “High-throughput peptide-centric local stability assay extends protein–ligand identification to membrane proteins, tissues and bacteria” (Nature Structural & Molecular Biology, 2025).
Some of the results follow. Small differences around the control level are noise.

By UniProt entry, the sequences of proteins in these tests, tags left out. Where a name states a change or a piece, a line headed by the entry shows the natural chain unless it says otherwise.
UniProt Q9WUR9: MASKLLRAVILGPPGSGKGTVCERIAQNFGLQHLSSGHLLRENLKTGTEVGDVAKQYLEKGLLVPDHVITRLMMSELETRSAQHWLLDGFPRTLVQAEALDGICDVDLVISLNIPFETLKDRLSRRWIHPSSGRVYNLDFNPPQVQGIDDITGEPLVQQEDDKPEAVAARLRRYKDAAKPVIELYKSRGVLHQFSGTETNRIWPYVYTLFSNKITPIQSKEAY
UniProt Q9WTM5, whole entry: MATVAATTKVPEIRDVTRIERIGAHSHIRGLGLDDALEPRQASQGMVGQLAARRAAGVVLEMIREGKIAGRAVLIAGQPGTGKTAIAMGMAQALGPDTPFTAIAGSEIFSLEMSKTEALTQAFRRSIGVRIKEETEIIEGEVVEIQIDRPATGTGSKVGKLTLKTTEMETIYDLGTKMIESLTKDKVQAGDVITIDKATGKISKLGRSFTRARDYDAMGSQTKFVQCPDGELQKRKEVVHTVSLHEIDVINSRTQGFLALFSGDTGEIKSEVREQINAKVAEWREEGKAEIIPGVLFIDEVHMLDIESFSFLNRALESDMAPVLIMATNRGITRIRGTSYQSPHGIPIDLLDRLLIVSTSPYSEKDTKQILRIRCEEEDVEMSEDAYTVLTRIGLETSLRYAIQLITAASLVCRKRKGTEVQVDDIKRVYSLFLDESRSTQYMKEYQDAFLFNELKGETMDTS
UniProt Q9WUM3, whole entry: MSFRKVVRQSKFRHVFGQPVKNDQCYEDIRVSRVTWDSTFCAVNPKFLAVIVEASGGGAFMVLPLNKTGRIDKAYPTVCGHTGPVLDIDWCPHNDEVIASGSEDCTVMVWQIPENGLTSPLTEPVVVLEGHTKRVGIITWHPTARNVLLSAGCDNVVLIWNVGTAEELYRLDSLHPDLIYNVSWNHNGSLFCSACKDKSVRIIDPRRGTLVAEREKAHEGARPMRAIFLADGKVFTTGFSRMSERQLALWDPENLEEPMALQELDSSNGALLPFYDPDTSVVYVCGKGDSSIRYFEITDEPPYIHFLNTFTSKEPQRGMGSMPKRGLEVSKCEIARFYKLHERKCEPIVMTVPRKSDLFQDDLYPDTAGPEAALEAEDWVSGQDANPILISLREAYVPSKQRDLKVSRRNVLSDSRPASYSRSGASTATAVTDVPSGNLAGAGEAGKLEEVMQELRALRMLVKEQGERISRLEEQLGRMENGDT
UniProt Q9Z0J1: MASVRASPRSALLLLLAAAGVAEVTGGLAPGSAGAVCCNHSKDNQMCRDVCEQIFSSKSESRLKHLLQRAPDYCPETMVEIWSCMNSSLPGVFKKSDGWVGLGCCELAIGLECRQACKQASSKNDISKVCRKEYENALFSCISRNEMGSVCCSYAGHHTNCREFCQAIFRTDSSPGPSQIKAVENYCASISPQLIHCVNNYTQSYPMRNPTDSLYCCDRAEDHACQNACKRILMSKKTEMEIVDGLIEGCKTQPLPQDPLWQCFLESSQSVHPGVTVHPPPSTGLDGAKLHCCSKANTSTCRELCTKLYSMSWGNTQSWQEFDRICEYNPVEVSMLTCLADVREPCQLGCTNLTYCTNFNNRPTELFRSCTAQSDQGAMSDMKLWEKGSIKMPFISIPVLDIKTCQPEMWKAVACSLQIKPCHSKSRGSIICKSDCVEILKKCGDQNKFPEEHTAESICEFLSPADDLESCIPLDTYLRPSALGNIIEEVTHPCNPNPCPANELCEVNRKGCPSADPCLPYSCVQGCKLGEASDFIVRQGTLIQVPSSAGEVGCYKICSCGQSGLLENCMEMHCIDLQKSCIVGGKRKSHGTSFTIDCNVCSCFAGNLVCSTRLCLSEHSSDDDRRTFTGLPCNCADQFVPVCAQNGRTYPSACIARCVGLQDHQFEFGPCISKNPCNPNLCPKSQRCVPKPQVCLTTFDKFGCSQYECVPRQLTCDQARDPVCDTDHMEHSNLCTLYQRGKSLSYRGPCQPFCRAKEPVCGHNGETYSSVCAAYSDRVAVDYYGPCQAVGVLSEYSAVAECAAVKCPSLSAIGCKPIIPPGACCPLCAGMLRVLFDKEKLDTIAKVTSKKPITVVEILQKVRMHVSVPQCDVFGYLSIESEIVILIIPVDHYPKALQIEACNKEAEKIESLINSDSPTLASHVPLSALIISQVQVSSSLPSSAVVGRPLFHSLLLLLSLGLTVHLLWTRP
UniProt Q9QZ49: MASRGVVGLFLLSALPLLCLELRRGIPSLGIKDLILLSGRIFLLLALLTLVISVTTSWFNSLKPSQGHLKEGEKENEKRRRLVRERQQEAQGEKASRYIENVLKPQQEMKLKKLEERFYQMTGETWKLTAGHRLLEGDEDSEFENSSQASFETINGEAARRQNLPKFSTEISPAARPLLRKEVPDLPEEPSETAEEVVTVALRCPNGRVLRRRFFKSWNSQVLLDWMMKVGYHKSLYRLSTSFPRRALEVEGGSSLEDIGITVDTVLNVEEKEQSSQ
UniProt Q9R020: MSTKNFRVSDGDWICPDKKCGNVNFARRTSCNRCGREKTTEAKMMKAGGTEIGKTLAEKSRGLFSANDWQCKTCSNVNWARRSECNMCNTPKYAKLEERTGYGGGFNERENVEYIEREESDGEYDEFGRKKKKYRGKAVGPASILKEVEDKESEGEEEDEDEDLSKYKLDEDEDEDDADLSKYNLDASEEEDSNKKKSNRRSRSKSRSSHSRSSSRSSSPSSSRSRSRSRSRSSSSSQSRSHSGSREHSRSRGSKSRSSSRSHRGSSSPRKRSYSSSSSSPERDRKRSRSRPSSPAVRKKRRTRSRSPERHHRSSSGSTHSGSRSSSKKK
UniProt Q9WVM8: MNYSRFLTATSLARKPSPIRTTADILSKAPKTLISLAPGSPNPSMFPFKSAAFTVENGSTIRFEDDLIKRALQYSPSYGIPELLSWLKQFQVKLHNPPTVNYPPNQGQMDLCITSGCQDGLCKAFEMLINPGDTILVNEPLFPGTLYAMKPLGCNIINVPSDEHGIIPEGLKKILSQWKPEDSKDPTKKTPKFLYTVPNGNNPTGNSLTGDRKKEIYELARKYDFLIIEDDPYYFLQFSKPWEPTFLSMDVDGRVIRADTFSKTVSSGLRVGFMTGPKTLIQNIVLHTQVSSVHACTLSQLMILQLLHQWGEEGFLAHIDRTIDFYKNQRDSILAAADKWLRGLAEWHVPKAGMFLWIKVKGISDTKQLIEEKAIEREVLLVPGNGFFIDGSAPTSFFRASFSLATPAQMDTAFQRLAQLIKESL
UniProt Q9WVE8: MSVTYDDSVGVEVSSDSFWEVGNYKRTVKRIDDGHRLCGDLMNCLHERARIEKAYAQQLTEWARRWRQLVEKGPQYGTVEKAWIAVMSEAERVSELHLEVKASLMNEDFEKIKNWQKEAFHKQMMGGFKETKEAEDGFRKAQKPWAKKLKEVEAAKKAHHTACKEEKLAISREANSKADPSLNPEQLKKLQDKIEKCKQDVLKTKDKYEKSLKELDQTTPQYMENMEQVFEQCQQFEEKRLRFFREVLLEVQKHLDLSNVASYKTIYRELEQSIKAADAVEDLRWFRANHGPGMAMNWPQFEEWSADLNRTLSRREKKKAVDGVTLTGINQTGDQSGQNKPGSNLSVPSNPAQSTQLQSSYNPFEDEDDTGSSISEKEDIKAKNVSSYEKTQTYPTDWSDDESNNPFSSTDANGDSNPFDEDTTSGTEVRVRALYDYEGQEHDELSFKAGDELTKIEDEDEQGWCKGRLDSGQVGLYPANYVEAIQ
UniProt Q9WVR4, whole entry: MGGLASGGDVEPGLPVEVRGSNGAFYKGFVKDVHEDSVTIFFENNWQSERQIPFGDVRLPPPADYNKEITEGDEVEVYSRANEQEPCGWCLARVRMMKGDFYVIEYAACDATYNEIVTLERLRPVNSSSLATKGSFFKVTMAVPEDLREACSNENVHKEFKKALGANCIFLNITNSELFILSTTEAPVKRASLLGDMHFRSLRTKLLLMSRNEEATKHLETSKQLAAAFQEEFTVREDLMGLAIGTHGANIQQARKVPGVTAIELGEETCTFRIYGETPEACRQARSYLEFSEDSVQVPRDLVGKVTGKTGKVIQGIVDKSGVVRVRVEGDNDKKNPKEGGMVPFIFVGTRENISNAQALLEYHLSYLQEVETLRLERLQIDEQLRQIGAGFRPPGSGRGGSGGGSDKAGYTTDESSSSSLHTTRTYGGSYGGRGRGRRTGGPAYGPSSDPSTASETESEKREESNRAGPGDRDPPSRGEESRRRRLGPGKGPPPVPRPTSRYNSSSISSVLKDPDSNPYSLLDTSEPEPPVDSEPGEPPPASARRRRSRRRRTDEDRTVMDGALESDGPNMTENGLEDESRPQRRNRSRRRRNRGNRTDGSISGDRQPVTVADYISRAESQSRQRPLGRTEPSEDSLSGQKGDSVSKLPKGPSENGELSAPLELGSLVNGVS
UniProt Q9Z211: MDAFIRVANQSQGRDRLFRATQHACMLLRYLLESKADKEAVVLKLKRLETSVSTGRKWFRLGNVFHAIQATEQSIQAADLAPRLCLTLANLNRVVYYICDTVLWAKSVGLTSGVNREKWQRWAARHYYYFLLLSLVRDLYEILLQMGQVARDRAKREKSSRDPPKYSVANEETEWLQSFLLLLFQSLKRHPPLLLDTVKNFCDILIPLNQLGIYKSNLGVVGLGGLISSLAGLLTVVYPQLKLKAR
UniProt Q9QYR7: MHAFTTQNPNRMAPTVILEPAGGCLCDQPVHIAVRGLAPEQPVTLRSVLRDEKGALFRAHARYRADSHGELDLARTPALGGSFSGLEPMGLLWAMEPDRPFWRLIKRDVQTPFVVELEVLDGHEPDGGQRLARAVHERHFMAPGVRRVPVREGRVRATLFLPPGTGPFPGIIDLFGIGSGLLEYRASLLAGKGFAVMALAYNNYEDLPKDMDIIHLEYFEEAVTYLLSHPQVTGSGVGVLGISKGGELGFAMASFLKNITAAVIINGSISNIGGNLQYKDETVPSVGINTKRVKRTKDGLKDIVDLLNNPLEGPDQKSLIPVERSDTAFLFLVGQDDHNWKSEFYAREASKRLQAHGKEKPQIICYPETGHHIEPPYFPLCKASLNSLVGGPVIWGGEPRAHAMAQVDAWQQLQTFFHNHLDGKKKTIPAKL
UniProt Q9R1J0: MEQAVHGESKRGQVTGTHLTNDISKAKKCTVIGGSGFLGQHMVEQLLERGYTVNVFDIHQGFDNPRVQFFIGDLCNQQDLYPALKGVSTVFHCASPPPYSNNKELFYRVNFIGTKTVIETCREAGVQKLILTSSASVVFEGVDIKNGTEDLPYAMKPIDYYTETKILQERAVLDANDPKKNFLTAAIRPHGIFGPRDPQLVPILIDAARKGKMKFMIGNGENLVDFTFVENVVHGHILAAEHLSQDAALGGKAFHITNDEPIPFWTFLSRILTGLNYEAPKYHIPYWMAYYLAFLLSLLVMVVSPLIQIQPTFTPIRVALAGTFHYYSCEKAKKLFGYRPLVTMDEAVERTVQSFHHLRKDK
UniProt Q9QZE7: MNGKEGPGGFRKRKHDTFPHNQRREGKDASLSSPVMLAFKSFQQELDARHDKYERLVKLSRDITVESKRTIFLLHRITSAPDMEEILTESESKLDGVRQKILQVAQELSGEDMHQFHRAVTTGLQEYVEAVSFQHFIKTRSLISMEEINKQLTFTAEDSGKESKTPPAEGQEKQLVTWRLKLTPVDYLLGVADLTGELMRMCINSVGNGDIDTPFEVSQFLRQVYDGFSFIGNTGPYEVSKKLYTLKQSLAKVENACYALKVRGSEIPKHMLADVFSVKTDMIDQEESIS
UniProt Q9R0Q4, whole entry: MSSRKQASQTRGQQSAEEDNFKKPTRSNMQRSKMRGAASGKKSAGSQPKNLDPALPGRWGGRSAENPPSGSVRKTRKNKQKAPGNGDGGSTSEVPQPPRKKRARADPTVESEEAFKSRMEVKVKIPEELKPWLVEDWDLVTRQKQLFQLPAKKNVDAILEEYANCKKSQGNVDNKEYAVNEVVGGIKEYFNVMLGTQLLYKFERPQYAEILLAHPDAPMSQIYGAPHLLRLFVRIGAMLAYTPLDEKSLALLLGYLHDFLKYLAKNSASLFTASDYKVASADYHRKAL
UniProt Q9Z0X1, whole entry: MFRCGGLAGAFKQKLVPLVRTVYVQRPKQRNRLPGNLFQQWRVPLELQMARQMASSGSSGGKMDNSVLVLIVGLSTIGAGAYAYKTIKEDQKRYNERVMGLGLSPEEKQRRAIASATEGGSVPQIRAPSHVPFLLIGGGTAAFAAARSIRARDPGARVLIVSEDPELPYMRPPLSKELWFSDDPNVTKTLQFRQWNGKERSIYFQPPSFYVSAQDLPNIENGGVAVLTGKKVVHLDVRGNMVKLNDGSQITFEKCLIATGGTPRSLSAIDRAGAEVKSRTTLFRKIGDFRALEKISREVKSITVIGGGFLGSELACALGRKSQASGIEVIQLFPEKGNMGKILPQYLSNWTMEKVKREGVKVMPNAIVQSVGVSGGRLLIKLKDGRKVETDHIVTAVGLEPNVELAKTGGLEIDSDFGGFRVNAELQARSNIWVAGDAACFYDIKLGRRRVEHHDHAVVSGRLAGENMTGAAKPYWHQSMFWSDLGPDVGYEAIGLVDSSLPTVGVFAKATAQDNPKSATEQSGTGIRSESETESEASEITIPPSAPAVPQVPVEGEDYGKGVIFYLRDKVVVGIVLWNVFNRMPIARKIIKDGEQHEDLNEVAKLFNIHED

What follows are targets tested with CN[C@@H]1C[C@H]2O[C@@](C)([C@@H]1OC)n1c3ccccc3c3c4c(c5c6ccccc6n2c5c31)C(=O)NC4 [staurosporine] (assay: log2 fold change of pooled soluble protein (PISA), ligand vs vehicle (log2 ratio); higher = more thermally stabilized). Details: ligand concentration: 20 uM; assay format: PISA pool 52.9/55.5/58.6 C.

| Target | log2 fold change of pooled soluble protein |
| --- | --- |
| UniProt Q9WUR9 | -0.117 |
| UniProt Q9WTM5 | -0.0753 |
| UniProt Q9Z266 | -0.0104 |
| UniProt Q9WUM3 | 0.191 |
| UniProt Q9WVA4 | -0.0481 |
| UniProt Q9R1P4 | -0.099 |
| UniProt Q9Z2Y8 | -0.0227 |
| UniProt Q9WU00 | -0.03 |
| UniProt Q9WUP7 | 0.0349 |
| UniProt Q9R1T4 | 0.0981 |
| UniProt Q9R1C0 | -0.109 |
| UniProt Q9WTL7 | 0.0149 |
| UniProt Q9QZH3 | -0.0998 |
| UniProt Q9Z0P5 | 0.0383 |
| UniProt Q9Z0J1 | 0.0614 |
| UniProt Q9Z0R9 | -0.113 |
| UniProt Q9WUL7 | -0.0832 |
| UniProt Q9QZ49 | 0.00938 |
| UniProt Q9Z2F7 | -0.349 |

| Target | log2 fold change of pooled soluble protein |
| --- | --- |
| UniProt Q9R020 | 0.0763 |
| UniProt Q9WVM8 | -0.00583 |
| UniProt Q9R0M6 | -0.0146 |
| UniProt Q9WVE8 | -0.0804 |
| UniProt Q9WVR4 | 0.203 |
| UniProt Q9WU19 | -0.0212 |
| UniProt Q9R1P0 | -0.259 |
| UniProt Q9Z211 | -0.25 |
| UniProt Q9QYR7 | -0.214 |
| UniProt Q9WUZ9 | -0.045 |
| UniProt Q9R1J0 | 0.117 |
| UniProt Q9QZE7 | -0.113 |
| UniProt Q9WTP7 | -0.0753 |
| UniProt Q9QZQ1 | 0.0183 |
| UniProt Q9R060 | -0.179 |
| UniProt Q9QZC2 | -0.208 |
| UniProt Q9R0Q4 | 0.0384 |
| UniProt Q9Z0X1 | -0.0037 |
| UniProt Q9WVQ5 | -0.0159 |

As a working copy, some entries already given.

| Target | log2 fold change of pooled soluble protein |
| --- | --- |
| UniProt Q9R020 | 0.0763 |
| UniProt Q9WVM8 | -0.00583 |
